Measurements reported in PubChem BioAssay AID1508597 (Cure First, 2020).
Assay: 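Knock-downs altering ovarian cancer cell survival with or without PARP inhibitor rucaparib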 (primary screen). Cells: human ovarian carcinoma lines grown from tumours: OCI-P5x (papillary serous) and OCI-C5x (clear cell). Reagents: siRNA pool against human genes, 1.25 pmol siRNA per well. Time to read-out: 72 h or 96 h, depending on the cell culture. Challenge: rucaparib 20 µM (about IC30) or vehicle, present until read-out. Rucaparib or vehicle: Rucaparib. Cell line: OCI-C5x (clear cell). Measurement: 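ATP luminescence measured at 72 or 96 h according to the culture, then normalised and expressed as percent viability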. Reading the numbers: viability, normalised: higher = more viable cells remaining. Call rule: 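Active when normalised viability falls below 80 percent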. Meaning of the calls: active = viability under 80%; inactive = viability 80% or more.
Shown is a random part of the about 2,100 reagents, under one of the conditions tested. 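Calls flag viability under 80% in either arm, not effects specific to rucaparib; the reference for percent is not stated.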 A number with no mark means an inactive call. Some reagents were tested in more than one well and are listed for each. Not given: the 100% reference.

target | technical replicate | viability, normalised (%)
CHMP1B | 1 | 38.8 (active)
CHMP1B | 2 | 59.7 (active)
CHMP1B | 3 | 40.7 (active)
MAST3 | 1 | 46.3 (active)
MAST3 | 2 | 47.7 (active)
MAST3 | 3 | 54.1 (active)
MBD5 | 1 | 48.5 (active)
MBD5 | 2 | 36.3 (active)
MBD5 | 3 | 46.9 (active)
PARP8 | 1 | 39 (active)
PARP8 | 2 | 32.6 (active)
PARP8 | 3 | 34.9 (active)
ALPK2 | 1 | 80.5
ALPK2 | 2 | 76 (active)
ALPK2 | 3 | 73.2 (active)
GJA10 | 1 | 53.9 (active)
GJA10 | 2 | 41.8 (active)
GJA10 | 3 | 57.5 (active)
SMARCC2 | 1 | 43.1 (active)
SMARCC2 | 2 | 44.8 (active)
SMARCC2 | 3 | 42.2 (active)
PDZD2 | 1 | 47.7 (active)
PDZD2 | 2 | 53.9 (active)
PDZD2 | 3 | 55.4 (active)
DCLK1 | 1 | 57.9 (active)
DCLK1 | 2 | 68.3 (active)
DCLK1 | 3 | 65.9 (active)
SMPD1 | 1 | 55.7 (active)
SMPD1 | 2 | 52.3 (active)
SMPD1 | 3 | 42.7 (active)
PIN1 | 1 | 67.8 (active)
PIN1 | 2 | 61.7 (active)
PIN1 | 3 | 49.5 (active)
KDM6B | 1 | 62.2 (active)
KDM6B | 2 | 36.8 (active)
KDM6B | 3 | 45 (active)
SCML2 | 1 | 49.2 (active)
SCML2 | 2 | 46 (active)
SCML2 | 3 | 46.4 (active)
MAP3K4 | 1 | 54.4 (active)
MAP3K4 | 2 | 84.1
MAP3K4 | 3 | 60.2 (active)
TNP1 | 1 | 75.2 (active)
TNP1 | 2 | 74.1 (active)
TNP1 | 3 | 50.5 (active)
SMARCA4 | 1 | 66.4 (active)
SMARCA4 | 1 | 30.2 (active)
SMARCA4 | 2 | 66.5 (active)
SMARCA4 | 2 | 36.5 (active)
SMARCA4 | 3 | 28.7 (active)
SMARCA4 | 3 | 56.5 (active)
IFNAR2 | 1 | 75.4 (active)
IFNAR2 | 2 | 72.9 (active)
IFNAR2 | 3 | 57.9 (active)
MEN1 | 1 | 46.6 (active)
MEN1 | 2 | 41.4 (active)
MEN1 | 3 | 55.9 (active)

8 entries from above, reformatted:
KDM6B, technical replicate 2 | viability, normalised (%): 36.8 (active)
KDM6B, technical replicate 3 | viability, normalised (%): 45 (active)
SCML2, technical replicate 1 | viability, normalised (%): 49.2 (active)
SCML2, technical replicate 2 | viability, normalised (%): 46 (active)
SCML2, technical replicate 3 | viability, normalised (%): 46.4 (active)
MAP3K4, technical replicate 1 | viability, normalised (%): 54.4 (active)
MAP3K4, technical replicate 2 | viability, normalised (%): 84.1
MAP3K4, technical replicate 3 | viability, normalised (%): 60.2 (active)
